The whole screen tested about 65,000 compounds, of which about 100 (0.15%) were called active. The inconclusive results got no clear call from the source; some entries with a clear call stand among them for comparison.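 The calls were made as follows: active = inhibition above about 50% (limit read from the data); inconclusive = inhibition over screen mean plus 3 SD, below that limit; inactive = the rest.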
molecular target: Dual specificity protein phosphatase 1 (Homo sapiens) (UniProt P28562); assay: MKP-1 phosphatase inhibitors, primary screen, biochemical, in vitro (AID 374); conditions: recombinant MKP-1, OMFP hydrolysis fluorescence; hits give high values;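 compounds tested at a single concentration somewhere between 10 and 100 µM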;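 also: 0% = DMSO max control wells and 100% = wells with enzyme stopped by NaOH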

By UniProt entry, the sequences of proteins in these tests, tags left out. Where a name states a change or a piece, a line headed by the entry shows the natural chain unless it says otherwise.
UniProt P28562: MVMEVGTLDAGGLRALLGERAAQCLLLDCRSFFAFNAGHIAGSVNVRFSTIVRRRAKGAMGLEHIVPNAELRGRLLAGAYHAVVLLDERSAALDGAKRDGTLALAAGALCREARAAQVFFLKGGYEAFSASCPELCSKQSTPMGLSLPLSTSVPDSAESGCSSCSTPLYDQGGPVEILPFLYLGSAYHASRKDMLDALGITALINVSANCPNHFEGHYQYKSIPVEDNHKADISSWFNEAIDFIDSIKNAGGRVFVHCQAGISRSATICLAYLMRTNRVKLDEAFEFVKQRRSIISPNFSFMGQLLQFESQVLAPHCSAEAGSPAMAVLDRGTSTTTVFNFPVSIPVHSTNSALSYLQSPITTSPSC

SMILES	inhibition
[O-]/[N+](=C\c1ccc(OC(F)F)cc1)c1ccccc1	active: 64.9%
CCOc1ccc2noc3c2c1C(=O)c1ccccc1-3	active: 65%
COCCn1nnnc1C(c1ccc(O)c(OC)c1)N1CCc2ccccc2C1 (stereo unspecified)	inconclusive: 48.7%
CC1CCN(CCc2nc3cc(NC(=O)Nc4ccccc4)ccc3n2C)CC1	inconclusive: 44.7%
Cc1ccc(N(CC(=O)NC2CCC(C)CC2)S(=O)(=O)c2cccnc2)cc1 (stereo unspecified)	inactive: 29.4%
Nc1c(C(=O)NCCN2CCOCC2)c2nc3ccccc3nc2n1CCc1ccccc1	inconclusive: 46.1%
Cc1ccc(-c2cc(C(=O)NC3=NCCS3)c3cc(Br)ccc3n2)o1	inconclusive: 47.3%
CCSc1nc2c([nH]c3ccccc32)c(=O)n1C	inactive: 3.98%
CCOc1ccc2nc(NC(=O)c3cnccn3)sc2c1	inactive: 10.7%
COC(=O)c1cc(OC)c(OC)cc1NC(=O)CSc1nnnn1Cc1ccccc1	inconclusive: 44.6%
O=C(O)c1ccccc1-c1nc2ccccc2c(=O)[nH]1	inconclusive: 45.8%
C=CCn1c(SCC(O)Cn2c3ccccc3c3ccccc32)nnc1-c1ccco1 (stereo unspecified)	inactive: 29.1%
O=C(Nc1ccc2nc(-c3ccco3)c(-c3ccco3)nc2c1)N1CCCCCC1	active: 50.8%
O=C(Nc1ccccc1Cl)N1CCN(c2ccc3nnc(-c4ccc(F)cc4)n3n2)CC1	inconclusive: 44.8%
COc1cc(-c2nnc(COC(=O)C3c4ccccc4Oc4ccccc43)o2)cc(OC)c1OC	inconclusive: 45.3%
C=CCn1c(SCC(=O)c2ccc(CNC(C)=O)o2)nc2scc(C3CC3)c2c1=O	inconclusive: 49%
COc1cccc(NC(=O)CSc2nc3n[nH]c(C)c3c(=N)n2-c2cccc(OC)c2)c1	inconclusive: 49.3%
COc1ccccc1N1CCN(C(=O)c2cc3n(n2)C(C(F)(F)F)CC(c2ccco2)N3)CC1 (stereo unspecified)	inconclusive: 45.8%
Cc1cccc2sc(NC(=O)C3CCCN(S(=O)(=O)c4cccc5nonc45)C3)nc12 (stereo unspecified)	inconclusive: 47.5%
Cc1ccc(-n2c(SCn3nnc4ccccc4c3=O)nnc2-c2cccnc2)c(C)c1	inconclusive: 44.6%
CCOC(=O)N1CCC(NC(=O)c2ccc3c(c2)sc2nc(-c4ccccc4)cn23)CC1	inconclusive: 45.4%
COc1cc2c(cc1OC)C(C(=O)N1CCCC1)C(c1ccccc1F)N(C)C2=O (stereo unspecified)	inactive: 6.48%
CC(C)(C)c1ccc(Cn2nnc3c(=O)[nH]c(C4CCCN(C(=O)Cc5cccs5)C4)nc32)cc1 (stereo unspecified)	inconclusive: 49.6%
COc1cc2c(cc1OC)C(C(=O)Nc1ccc3c(c1)OCCO3)C1c3ccccc3CCN1C2=O (stereo unspecified)	inconclusive: 48.1%
Cc1ccc2c(c1C)NC(C(=O)O)C1CC=CC21 (stereo unspecified)	inconclusive: 45.1%
CCCCn1c(NC(=O)c2ccc(F)cc2)c(C#N)c2nc3ccccc3nc21	inconclusive: 47.9%

Quoted at random: 5 records from the list, in no set order.
SMILES	inhibition
COCCn1nnnc1C(c1ccc(O)c(OC)c1)N1CCc2ccccc2C1 (stereo unspecified)	inconclusive: 48.7%
C=CCn1c(SCC(=O)c2ccc(CNC(C)=O)o2)nc2scc(C3CC3)c2c1=O	inconclusive: 49%
COc1cccc(NC(=O)CSc2nc3n[nH]c(C)c3c(=N)n2-c2cccc(OC)c2)c1	inconclusive: 49.3%
COc1cc2c(cc1OC)C(C(=O)Nc1ccc3c(c1)OCCO3)C1c3ccccc3CCN1C2=O (stereo unspecified)	inconclusive: 48.1%
O=C(Nc1ccccc1Cl)N1CCN(c2ccc3nnc(-c4ccc(F)cc4)n3n2)CC1	inconclusive: 44.8%

Next compounds follow:

SMILES	inhibition
Cn1c2ccccc2c2cc(C(=O)OCC(=O)N3CC(=O)Nc4ccccc43)sc21	inconclusive: 47.2%
CCCc1nc2sc3c(SCC(=O)NCc4ccco4)ncnc3c2c2c1CCC2	inconclusive: 45.5%
COc1ccc2cc(CN(Cc3ccco3)Cc3nnnn3C3CCCCC3)c(=O)[nH]c2c1	inconclusive: 44.9%
O=C(Nc1ccc(-c2nc3ccccc3o2)c(O)c1)c1cc(-n2cnnc2)ccc1Cl	inconclusive: 45.7%
CC(C)Cn1c(N)c(C(=O)COC(=O)c2cc(-c3ccco3)nc3ccccc23)c(=O)n(C)c1=O	active: 50.6%
Cn1c(=O)[nH]c(=O)c2c1nc(SCCN1CCCCC1)n2Cc1ccccc1	inactive: 4.09%
Nc1c(C(=O)NC2CC2)c2nc3ccccc3nc2n1-c1ccc2c(c1)OCO2	inconclusive: 45.8%
O=C(c1ccc(N2CN(C(=O)c3ccco3)c3nc4ccccc4nc32)cc1)N1CCOCC1	inconclusive: 48.2%
COC(=O)c1cc2sc(Cl)cc2n1CC(=O)Nc1ccc(OC)c(OC)c1OC	inconclusive: 45.2%
COc1ccc(C(=O)CSc2nnc(CNC(=O)c3ccc(OC)c(OC)c3)n2C)cc1	active: 73.6%
COc1ccc(N2CCN(C(=O)c3ccc(N4C(=O)NC5CC4(C)Oc4ccccc45)cc3)CC2)cc1 (stereo unspecified)	inconclusive: 48.1%
COc1cccc(CNC(=O)C2CCCN(S(C)(=O)=O)C2)c1 (stereo unspecified)	inactive: -8.91%
O=C(NC1CCCCCCC1)c1ccc2c(c1)N(Cc1ccc(F)cc1)C(=O)CS2=O (stereo unspecified)	inconclusive: 48.1%
Cc1nn(C)c(C)c1S(=O)(=O)N(CC(=O)NCCCOC(C)C)c1ccc(C(C)C)cc1	inconclusive: 49.4%
S=c1[nH]nc(-c2ccc(Br)cc2)n1Cc1ccco1	inactive: 3.36%
O=C(c1ccc(Cn2c(=O)[nH]c3ccccc3c2=O)cc1)N1CCN(c2ccc(F)cc2)CC1	inconclusive: 45.2%
CCOc1ccccc1C1C(C#N)=C(SCC(=O)OC)NC(=O)C1C(=O)OC (stereo unspecified)	inactive: -1.53%
Cc1ccc(C)c(S(=O)(=O)C(C#N)c2nc3ccccc3nc2N2CCOCC2)c1 (stereo unspecified)	inconclusive: 45.7%
O=C(NC1CC1)c1c[nH]c2ccc(S(=O)(=O)Nc3cccc(C(F)(F)F)c3)cc2c1=O	active: 52.5%
COc1ccc(-n2c(SCC(=O)Nc3cc(C)on3)nc3ccc(O)cc3c2=O)cc1OC	inconclusive: 48.9%
COc1cc(OC)cc(C(=O)Nc2ccc(-c3nc4ccccc4o3)c(O)c2)c1	inconclusive: 44.7%
CCN(CC)c1ccc(-c2nn3c(-c4n[nH]c5c4CCC5)nnc3s2)cc1	inconclusive: 48.9%
CCOC(=O)c1cnn(-c2sc(C(=O)OCC)c(C)c2C(=O)OCC)c1N	inconclusive: 46.7%
O=C1C(C2=C(O)c3ccccc3C2=O)=Nc2ccccc21	active: 91.2%
CCN(CC)C(=O)CSc1nc2ccccc2c(=O)n1CC1CCCCC1	inactive: -9.31%
COCCn1c(C)cc(C(=O)COC(=O)CCN2C(=O)c3ccccc3C2=O)c1C	inactive: 19%

SMILES	inhibition
O=C(NC1(O)C(=O)c2ccccc2C1=O)c1ccccc1	active: 62.2%
O=C(CCCCCn1c(SCC(=O)c2ccccc2)nc2ccccc2c1=O)NCc1ccco1	inconclusive: 45.7%
Cc1cc(C)n2c(SCC(=O)N3CCN(S(=O)(=O)c4ccc(Cl)cc4)CC3)nnc2n1	active: 56.3%
Cc1ccc(-n2nc3c(c2NC(=O)c2ccc(S(=O)(=O)N4CCOCC4)cc2)CSC3)c(C)c1	inconclusive: 48%
O=C(NCc1ccco1)c1cccn2c(=O)c3cc(Br)ccc3nc12	inconclusive: 48.6%
COCc1cc(C)[nH]c(=O)c1C#N	inactive: 0.34%
CCOC(=O)N1CCC(NC(=O)C2CCCCN2S(=O)(=O)c2ccc(F)cc2)CC1 (stereo unspecified)	inactive: 11.8%
O=C(c1cccs1)c1no[n+]([O-])c1C(=O)c1cccs1	active: 91.2%
CCOC(=O)c1sc2ccc(S(=O)(=O)N3CCOCC3)cc2c1N	inconclusive: 47.5%
Cc1ccc(NC(=O)CSc2nnc(-c3ccc(S(=O)(=O)N4CCCC4)cc3)o2)cc1C	active: 53.2%
Cc1ccnc(N2CCN(C(=O)CSc3nc4ccccc4nc3N3CCCCC3)CC2)c1	inactive: 6.59%
COc1cccc(N2C(=O)C3CCCN3C2c2ccc(F)cc2)c1 (stereo unspecified)	inactive: 7.6%
[O-]/[N+](=C/c1cccnc1)c1ccc(Br)cc1	inconclusive: 49%
Cn1c(=O)c2c(nc(CN3CCN(C(=O)c4ccco4)CC3)n2Cc2ccc(Cl)cc2)n(C)c1=O	inconclusive: 47.8%
CC1CN(c2nc3ccccc3nc2C(C#N)C(=O)OC2CCCCC2)CC(C)O1 (stereo unspecified)	inactive: 2.14%
Nc1c(C(=O)NCCN2CCOCC2)c2nc3ccccc3nc2n1CCc1ccccc1F	inconclusive: 44.6%
COc1ccccc1CCNC(=O)c1ccc(C)o1	inconclusive: 46.7%
Cc1c(CCC(=O)O)c(=O)oc2cc3occ(-c4ccc(F)cc4)c3cc12	inconclusive: 49.1%
CCCCCn1c(SCC#N)nc2cc(C(=O)NCC3CCCO3)ccc2c1=O (stereo unspecified)	inconclusive: 48.5%
O=C1CCCC2=C1C1(O)C(=O)c3ccccc3C1(O)O2 (stereo unspecified)	inconclusive: 48.4%
COc1ccc(-c2nn(C)c(=O)c3ccccc23)cc1NC(=O)Cn1nc(C)c2ccccc2c1=O	inconclusive: 45.9%
COc1ccc(CCNC(=O)C2CCCN(Cc3nc(-c4cccc(Cl)c4)oc3C)C2)cc1OC (stereo unspecified)	inconclusive: 48.5%
Brc1ccccc1-c1nnc2sc(-c3ccc4c(c3)OCCO4)nn12	inconclusive: 47.1%
COC(=O)c1ccc2c(c1)N(Cc1nc(-c3cccc(C)c3)oc1C)C(=O)C1CCCN21 (stereo unspecified)	inconclusive: 47.9%
CC(C)Sc1nc(-c2cccs2)nc2c1c(=O)n(C)c(=O)n2C	inactive: 11.5%
COc1ccc(C2C3=C(CC(C)(C)CC3=O)Nc3c2c(=O)[nH]c(=O)n3Cc2ccccc2)cc1OC (stereo unspecified)	inconclusive: 44.6%

Individual results from the list:
For inhibition, Cc1ccc(-n2nc3c(c2NC(=O)c2ccc(S(=O)(=O)N4CCOCC4)cc2)CSC3)c(C)c1 has inconclusive: 48%
For inhibition, COCc1cc(C)[nH]c(=O)c1C#N has inactive: 0.34%

Further entries.

SMILES	inhibition
CCCc1cc(Nc2c(C)n(C)n(-c3ccccc3)c2=O)n2c(nc3ccccc32)c1C#N	inactive: -2.97%
CCOc1cc2[nH]c(=O)n(CC3CCC(C(=O)NC(C)CC)CC3)c(=O)c2cc1OCC (stereo unspecified)	inconclusive: 49.3%
COc1cc(C(=O)Nc2nc3ccc(S(=O)(=O)N4CCOCC4)cc3s2)cc(OC)c1OC	inconclusive: 49%
O=C(Nc1ccc(N2CCCCC2)c(C(=O)O)c1)c1ccco1	inactive: 6.49%
CCOc1cc2c3c(c1)C1(C(=O)N3C(C)(C)C=C2C)C(C#N)=C(N)Oc2cc(O)ccc21 (stereo unspecified)	inconclusive: 44.7%
Cc1cc(C)c2cc(CN(Cc3ccco3)C(=O)NCc3ccccc3)c(=O)[nH]c2c1	inactive: 35%
N#Cc1c(-c2ccco2)cc(-c2ccccn2)nc1N	inactive: -3.87%
Cc1ccc(C)c(N2CCN(C(=O)c3ccc(NS(=O)(=O)c4c(C)noc4C)cc3)CC2)c1	inconclusive: 48.4%
O=c1c2ccccc2[nH]c(=S)n1CCN1CCN(Cc2ccccc2)CC1	inactive: -8.88%
O=C(CC1Nc2ccccc2NC1=O)Nc1ccccc1 (stereo unspecified)	inconclusive: 45.5%
CN(CC(=O)N1CC=C(c2ccccc2)CC1)S(=O)(=O)c1cnc[nH]1	inactive: 14.9%
CCOC(=O)C(CC)Sc1nc(-c2ccc(OC)cc2)nc2c1c(=O)n(C)c(=O)n2C (stereo unspecified)	inconclusive: 47.3%
CC(C)Sc1nc2sc3c(c2c2nnc(SCC(=O)NCc4ccco4)n12)CCCC3	active: 54.5%
Cc1nc2c(c(=O)n1CCC1=CCCCC1)c1nc3ccccc3nc1n2/N=C/c1ccco1	inconclusive: 44.7%
O=C(c1ccc(Cl)cc1)C1C2C(=O)N(c3ccccc3)C(=O)C2C2CCCN21 (stereo unspecified)	inactive: -7.85%
COC(=O)c1cc(NCc2c(F)cccc2Cl)ccc1N1CCOCC1	inconclusive: 45.2%
CC(=O)C1=C(O)C(=O)N(c2cc(C(C)(C)C)on2)C1c1ccc(C(C)C)cc1 (stereo unspecified)	inconclusive: 45.6%
CCCCn1c(SCC(=O)c2ccc(OC)cc2OC)nc2cc(S(N)(=O)=O)ccc21	active: 53.8%
COC(=O)c1ccc(C(=O)OC)c(NC(=O)CN2CCN(c3ccccc3OC)CC2)c1	inconclusive: 46.3%
COCCCn1c(=N)c(C(=O)NCc2ccc3c(c2)OCO3)cc2c(=O)n3ccccc3nc21	inactive: -23%
Cc1nc2ccccc2c2oc(C(=O)NCc3ccc4c(c3)OCO4)cc12	inconclusive: 46.3%
Cc1cc(N2C(=O)C(=O)/C(=C(/O)c3ccc(Cl)cc3)C2c2cccc(Br)c2)no1 (stereo unspecified)	inconclusive: 47.7%
COc1ccc(-c2nc(C(N)=O)c3[nH]c(=O)n(-c4cccc(C)c4)c3n2)c(OC)c1	inconclusive: 47.5%
